Test results as given in the supplement of paper PMC5949888.
Most values lie at the floor of the assay. Slopes are relative: functional sequences can read slightly below zero.

What follows are substances tested on Saccharomyces cerevisiae PS128 hsf1 delta, HSF1(1-493) fusion (assay: growth estimate (transactivation domain function in HSF1 fusion, heat-shock survival) (a.u. (slope of normalised read count over time)); higher = stronger growth at 37°C, i.e. more transactivation activity). Conditions: library: random library.
WHWYSNIFYTSNWGCD gave a growth estimate of less than -0.25.
Work on LEGPALDADTLHLEREVFRI yielded a growth estimate of less than -0.25.
Work on GLCDYG yielded a growth estimate of less than -0.25.
Substance RPIENSSYYTRAGARETAPL has a growth estimate of less than -0.25.
KDAGNKQSAPKSLWRREDVH was tested, and the growth estimate was less than -0.25.
Work on RSRRLLIGVRVI yielded a growth estimate of less than -0.25.
In the case of YLSLVEVVRWVLIICTLGAT, the growth estimate is reported as less than -0.25.
GYRRFAWLVYGLEFKSGAFF showed a growth estimate of less than -0.25.
RPWGKRSEVYYSDLSGVAMA gave a growth estimate of less than -0.25.
RGKHSAWWRRRQTP gave a growth estimate of less than -0.25.
With SRC the growth estimate was less than -0.25.
TIGRRLASISTSLVLPSVLE gave a growth estimate of less than -0.25.
In the case of VSHLQSSVGTWCP, the growth estimate is reported as less than -0.25.
Work on SVDAVHPGYT yielded a growth estimate of less than -0.25.
LYGTPLSRC gave a growth estimate of less than -0.25.
For ATYPT, the growth estimate was less than -0.25.
In the case of YSLWMS, the growth estimate is reported as less than -0.25.
QESKDGVPRRRTCTFMTIEG gave a growth estimate of less than -0.25.
With PSRRI the growth estimate was less than -0.25.
Substance GPIDACSRLQLCTARASIER has a growth estimate of less than -0.25.
Substance QFGGDNNHREQMNDTSAKAG has a growth estimate of less than -0.25.
IGSPIDGLKFSLQ was tested, and the growth estimate was less than -0.25.
GSWAGTVGNENDKKTR was tested, and the growth estimate was less than -0.25.
For WPPRKVRLIQP, the growth estimate was less than -0.25.
Substance GGAGLRPPIPPWKTRSTH has a growth estimate of less than -0.25.
Substance SSFNLSHRVVKKLRRIDISR has a growth estimate of less than -0.25.
Work on RKLVDY yielded a growth estimate of less than -0.25.
TIPTGRVLFQERRDVDETP showed a growth estimate of less than -0.25.
Work on PDTTGL yielded a growth estimate of less than -0.25.
Substance GSVNLEVFDKCAEV has a growth estimate of less than -0.25.
With LRLDKISDGKRGDMALSPRA the growth estimate was less than -0.25.
GGRVARVFVAHFDRWNHASD showed a growth estimate of less than -0.25.
Substance SGRKVLMQNPLLHGI has a growth estimate of less than -0.25.
In the case of AWVVRQS, the growth estimate is reported as less than -0.25.
In the case of ENGNLSSDSVIIGPRCDGLT, the growth estimate is reported as less than -0.25.
For TPLGRAGY, the growth estimate was less than -0.25.
RFRAVRANASGEPWQGRT showed a growth estimate of less than -0.25.
Substance GVKT has a growth estimate of less than -0.25.
Work on DISGSRKSGHFTITARRGGS yielded a growth estimate of less than -0.25.
For SALA, the growth estimate was less than -0.25.
In the case of GRDALWRDFWRGLPAEWDGR, the growth estimate is reported as less than -0.25.
For VFEAVYTLTTQGSSGERLEL, the growth estimate was less than -0.25.
DFSLLQHVRLAAVASLLTPR showed a growth estimate of less than -0.25.
For LSAGGSPSDLVSMISLSWGS, the growth estimate was -0.108.
RPYRLQDYFSCSRPGRE was tested, and the growth estimate was less than -0.25.
LASSAQWCVLNNGALSCRVL showed a growth estimate of -0.243.
LLFSHVGFAGSQET gave a growth estimate of less than -0.25.
With YNCTCINVRLRLRELITEDP the growth estimate was less than -0.25.
In the case of QALCILGVGAPRRCSPPQST, the growth estimate is reported as less than -0.25.
LANDPLDRASQPGFFSKSGN gave a growth estimate of less than -0.25.
VKWYELFNI gave a growth estimate of less than -0.25.
Substance VHLQGLHDSGPGRSSEPVDG has a growth estimate of less than -0.25.
TVRG showed a growth estimate of less than -0.25.
In the case of TNRGY, the growth estimate is reported as less than -0.25.
VGRVSGRLDDGDMSLIPPLV was tested, and the growth estimate was less than -0.25.
With KGLPGTGRLNAQATAELRST the growth estimate was less than -0.25.
In the case of IASPVACYPRVSLK, the growth estimate is reported as less than -0.25.
KVARGTDIRPHFIQVGMFTV was tested, and the growth estimate was -0.199.
For QREP, the growth estimate was less than -0.25.
Substance VRVKT has a growth estimate of less than -0.25.
For DGLVMVHGQLVWSFLVIFQG, the growth estimate was less than -0.25.
With LEAVPL the growth estimate was less than -0.25.
LSHSFGYRTLQGEWEACEYT was tested, and the growth estimate was less than -0.25.
Substance QVL has a growth estimate of less than -0.25.
Work on SGGVNV yielded a growth estimate of less than -0.25.
Substance GLKQRGSRSAGLSCHAFSLD has a growth estimate of less than -0.25.
LAEPPAAGESRMIIRRLCYD was tested, and the growth estimate was -0.124.
In the case of MLRFALRCSGLPTVSI, the growth estimate is reported as less than -0.25.
For PTHVRIWHSLDFNSRATAAE, the growth estimate was less than -0.25.
With SRIVSHNMVQRKLAVLRRLR the growth estimate was less than -0.25.
DSFRLYLLAFL gave a growth estimate of less than -0.25.
In the case of YRS, the growth estimate is reported as less than -0.25.
LRWCVWVGCIWNETSIDHAS showed a growth estimate of -0.243.
DRHVHCSRNLRIARACLDGS showed a growth estimate of less than -0.25.
For SVLTLESLQLRQ, the growth estimate was less than -0.25.
With IATACRA the growth estimate was less than -0.25.
DRFSRR was tested, and the growth estimate was less than -0.25.
For ISACCATYGCLYTSSNYLTL, the growth estimate was -0.218.
For LTAVAMFRGVIIMN, the growth estimate was less than -0.25.
In the case of LTPLL, the growth estimate is reported as less than -0.25.
For ILRDRLPHRCKQ, the growth estimate was less than -0.25.
FIGHELVAR showed a growth estimate of less than -0.25.
For SKSRMIRRLRDSG, the growth estimate was less than -0.25.
For SCVKPRLL, the growth estimate was less than -0.25.
Substance GINISASLSLHLGCHSGDNS has a growth estimate of less than -0.25.
Work on RTARFH yielded a growth estimate of less than -0.25.
With SIGVDL the growth estimate was less than -0.25.
For KCGRSRLCLVLSAAFRTLCV, the growth estimate was less than -0.25.
For DPQKAVTAGACSFRGGSARA, the growth estimate was less than -0.25.
Substance YLGFIDPLAQANLKFPFATL has a growth estimate of less than -0.25.
Work on TIGEVCRL yielded a growth estimate of less than -0.25.
Work on SRSQSAPVCRHVRVPLDRAF yielded a growth estimate of less than -0.25.
Substance RRVERIEGGRTLDVQHRPVL has a growth estimate of less than -0.25.
RSGHNSGCSFVLGQVD showed a growth estimate of less than -0.25.
Substance NIKCDWDKS has a growth estimate of less than -0.25.
In the case of RLSTLRFGGEWLETYCPLCM, the growth estimate is reported as less than -0.25.
Work on DRYKVFEITLLRSVPK yielded a growth estimate of less than -0.25.
GRRMGAAVN gave a growth estimate of less than -0.25.
Work on YGEDGNREATSGAASCSASD yielded a growth estimate of less than -0.25.
In the case of NTFYQIPLRSVARANVRAPG, the growth estimate is reported as less than -0.25.
Work on SIGAQCVARKVSVFTYIWPQ yielded a growth estimate of less than -0.25.
RPGRSGTRERDLM showed a growth estimate of less than -0.25.
In the case of RAKGSC, the growth estimate is reported as less than -0.25.
For QYSPNP, the growth estimate was less than -0.25.
In the case of EDCNPLGHRR, the growth estimate is reported as less than -0.25.
NTGNFRLLRSSATLPSSSSS was tested, and the growth estimate was less than -0.25.
For TRVEFFVHGVRMFLKRSS, the growth estimate was less than -0.25.
GVPLSPLFWPEMRHVHRTRK showed a growth estimate of less than -0.25.
In the case of PTFRQIWKVGVCQVYH, the growth estimate is reported as less than -0.25.
Work on FRCGFVCRYS yielded a growth estimate of less than -0.25.
QDVHYPLLVNGSIRGASTRH gave a growth estimate of less than -0.25.
WTIHAIQRVWINYEGRICQG showed a growth estimate of less than -0.25.
In the case of KFTRVAAPSAWQDGQRILSE, the growth estimate is reported as less than -0.25.
KYKEQGKSKDLPMNTALVPY gave a growth estimate of less than -0.25.
QPGERRGGINSVGERTSSTL was tested, and the growth estimate was less than -0.25.
RQCVE gave a growth estimate of less than -0.25.
Work on QGVIGF yielded a growth estimate of less than -0.25.
In the case of GAGKSFVRPALRCASDWSTG, the growth estimate is reported as less than -0.25.
NMGFSRSTQMLAGLAPRK gave a growth estimate of less than -0.25.
For WANLFSQPRRNRDRRLV, the growth estimate was less than -0.25.
With YPSIRFYGRADEKNIGLVKP the growth estimate was less than -0.25.
With HWEDVY the growth estimate was less than -0.25.
In the case of CSDRLGNVIPTGVLLEISDR, the growth estimate is reported as -0.231.
With FISR the growth estimate was less than -0.25.
Work on YGSEIARAVGPPRHSGK yielded a growth estimate of less than -0.25.
SGLTKSPNSRKGVKDRER gave a growth estimate of less than -0.25.
PRCFTVKIECPRRLILGPS was tested, and the growth estimate was less than -0.25.
Work on GGKHSA yielded a growth estimate of less than -0.25.
In the case of TQALVFHVCLLAPFHEYRLA, the growth estimate is reported as less than -0.25.
AQWSRKQKQKATTALLTPLD was tested, and the growth estimate was less than -0.25.
Substance AGIWYVEPTAAQGCGD has a growth estimate of less than -0.25.
NRWRCDLLADTLGASMYFRC showed a growth estimate of less than -0.25.
LQSTPQNDAAVSCGHARQFE was tested, and the growth estimate was less than -0.25.
For FLSEETGF, the growth estimate was less than -0.25.
Substance AIGEQPVMGLLPGGSKVFTR has a growth estimate of -0.0726.
With SPTWFRQAYFVRRVLKLTVT the growth estimate was less than -0.25.
STVSLKCALDPS was tested, and the growth estimate was less than -0.25.
PSSGLGVRSCGPWCSAPSPP showed a growth estimate of less than -0.25.
For GKPQEFRYSTAHRHWG, the growth estimate was less than -0.25.
Work on CCGNPLRVSTRPLELRA yielded a growth estimate of less than -0.25.
With SCRRMQRESGDSKLPHGCVP the growth estimate was less than -0.25.
Work on LSARLIAGT yielded a growth estimate of less than -0.25.
Work on VSPSIHWSCCNDPPLVYAIG yielded a growth estimate of less than -0.25.
VCSIHSDAYLSSRLSNWTRS gave a growth estimate of less than -0.25.
CNVSYQPRG gave a growth estimate of less than -0.25.
Work on QDFKQGAVFDEEPVAELA yielded a growth estimate of less than -0.25.
In the case of VAGAALAFIVRPGRMNASMG, the growth estimate is reported as less than -0.25.
For LCTCRKCIRNSMRSKIRH, the growth estimate was less than -0.25.
QYSCVHRLDTPLKEILSR gave a growth estimate of less than -0.25.
In the case of FNRRLL, the growth estimate is reported as less than -0.25.
GASIIARLNVAKPKRRGRIE gave a growth estimate of less than -0.25.
In the case of AMDPLIDAARV, the growth estimate is reported as less than -0.25.
RMIVYGRGWSEVESMVNAYV was tested, and the growth estimate was less than -0.25.
With SLLPGSIQSR the growth estimate was less than -0.25.
KSADT showed a growth estimate of less than -0.25.
GDSSRPYG gave a growth estimate of less than -0.25.
Substance ERVRITNLGRLYEPWSVLKR has a growth estimate of less than -0.25.
